These are yes or no findings as the source states them, for the method shown. In cells and extracts the contact can be indirect. Binding can be weak; no strength is given.
Tests used:
[1] = target: Flag-tagged TMEM106B T185 variant (transmembrane protein 106B) (human) (UniProt Q9NUM4); assay: co-IP; HEK293T cells transfected with flag-tagged TMEM106B variants (alone, or with CHMP2B^Intron5-cMyc); lysis in 50 mM Tris-HCl pH 7.5, 150 mM NaCl, 1 % NP40, 0.5 % sodium deoxycholate; anti-FLAG antibody overnight at 4 °C, Protein G agarose; blots with anti-CHMP2B, anti-cMyc or anti-flag
[2] = target: Flag-tagged TMEM106B S185 variant (transmembrane protein 106B) (human) (UniProt Q9NUM4); assay: as above

Sequences of proteins named here, by UniProt entry; tags and fusion partners are left off. A change or cut given only in a name is not applied to a line headed by its entry. A line that says so, or that is headed by a name, gives the form on record, which may keep a tag or linker.
UniProt Q9NUM4: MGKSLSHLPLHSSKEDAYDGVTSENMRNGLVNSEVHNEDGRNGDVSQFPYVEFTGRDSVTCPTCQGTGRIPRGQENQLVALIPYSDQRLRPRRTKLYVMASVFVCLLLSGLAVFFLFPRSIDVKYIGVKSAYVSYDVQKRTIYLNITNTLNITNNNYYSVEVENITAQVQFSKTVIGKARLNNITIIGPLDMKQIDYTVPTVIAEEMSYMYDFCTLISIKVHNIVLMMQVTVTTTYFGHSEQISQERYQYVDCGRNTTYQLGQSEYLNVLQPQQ
Flag-tagged TMEM106B S185 variant (transmembrane protein 106B) (Q9NUM4, form named): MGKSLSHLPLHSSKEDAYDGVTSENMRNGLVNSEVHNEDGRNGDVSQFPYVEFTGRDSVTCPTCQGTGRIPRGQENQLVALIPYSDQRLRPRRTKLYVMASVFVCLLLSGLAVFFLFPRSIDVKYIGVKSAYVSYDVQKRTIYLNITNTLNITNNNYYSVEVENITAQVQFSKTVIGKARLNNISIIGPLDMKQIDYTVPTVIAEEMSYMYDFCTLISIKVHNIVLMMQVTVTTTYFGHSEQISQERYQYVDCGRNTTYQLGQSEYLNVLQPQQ
UniProt Q9UQN3: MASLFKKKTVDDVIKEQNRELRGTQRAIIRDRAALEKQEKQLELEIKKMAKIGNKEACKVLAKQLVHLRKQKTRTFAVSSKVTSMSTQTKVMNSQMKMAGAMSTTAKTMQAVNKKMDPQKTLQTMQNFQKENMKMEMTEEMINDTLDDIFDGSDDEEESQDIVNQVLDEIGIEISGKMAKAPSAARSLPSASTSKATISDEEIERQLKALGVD

binding [1]: binds | binding [2]: binds
Substance: CHMP2B^Intron5-cMyc (FTD-3-linked mutant of charged multivesicular body protein 2B) (from UniProt Q9UQN3)

From article PMC4676093
